Test results: the supplement of paper PMC12889115
Some of the results follow. Values are raw readings; no control value is given beside them.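 In the initial screen, polymyxin B was used at a concentration that permeabilizes Salmonella's outer membrane but not its inner membrane. Maximum growth was set by DMSO wells with or without polymyxin B. Since plates varied, data were ranked per plate, and compounds giving the lowest OD600 advanced as hits.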

Tested on: Salmonella enterica serovar Typhimurium SL1344
Assay: bacterial growth OD600 after 18 h with compound and polymyxin B; higher = more bacterial growth (less inhibition)
Details: 50 µM, Mueller-Hinton broth

| SMILES | bacterial growth OD600 (polymyxin B 0.75 µg/mL) | bacterial growth OD600 (polymyxin B 1 µg/mL) |
| --- | --- | --- |
| COc1ccc(CN(Cc2ccncc2)C(=O)c2ccc(-c3cccc(F)c3)cc2)cc1OC1CCCC1 | 0.024 |  |
| CC1(C)C[C@@H]2C[C@@](C)(CN2C(=O)c2coc(COc3ccccc3)n2)C1 |  | 0.058 |
| COCC(=O)NC1CC(=O)N(CCc2cccc(Cl)c2)C1 (stereo unspecified) | 0.967 |  |
| O=C(c1ccsc1)N1CCC(C2CCN(c3ncccn3)CC2)C1 (stereo unspecified) | 0.781 |  |
| COc1cc([C@@H]2C[C@H]3CN(CCc4ccccc4)C(=O)[C@]34CCCN24)c(Cl)cc1O | 0.013 |  |
| CCN1CCN(C2(C(=O)NCc3ccon3)Cc3ccccc3C2)CC1 | 0.898 |  |
| COc1cccc(C(=O)N2CCC3(CCCN(CC4CC4)C3=O)C2)c1 (stereo unspecified) |  | 0.949 |
| CCN1CCCCC1C(=O)NCc1cccnc1Oc1ccc(C)c(F)c1F (stereo unspecified) |  | 0.946 |
| Cn1ccnc1CN1CCCC(CCC(=O)NCc2ccccc2Cl)C1 (stereo unspecified) |  | 1.05 |
| O=C(c1ccccn1)N1CCCC(CCc2ccc(F)c(F)c2)C1 (stereo unspecified) | 0.013 |  |
| COc1ccc2c(c1)CCc1cnc(-n3ncc(C(=O)NCc4ccc5c(c4)CCCN5C)c3C)nc1-2 | 0.64 |  |
| O=C(Nc1cccc(-c2cc3ccccc3[nH]2)c1)C1CCCN(C(=O)C2CC2)C1 (stereo unspecified) |  | 0.839 |
| c1ccc(-c2noc(CN(CC3CCC3)CC3CCCO3)n2)nc1 (stereo unspecified) |  | 0.802 |
| COc1ccc2c(c1)C=C(CN1CCC(CO)(Cc3ccccc3Cl)CC1)CO2 |  | 0.044 |
| c1ccc(OCc2noc(-c3ccc(NCC4CCCO4)nc3)n2)cc1 (stereo unspecified) |  | 0.74 |
| Cc1cc(C(=O)N2CCC(C3CCN(Cc4cccnc4)CC3)C2)nn1C (stereo unspecified) | 0.841 |  |
| COc1cc(C)ccc1OCc1cc(C(=O)N2CCNC(=O)C2)no1 |  | 0.381 |
| CC(C)=CC(=O)N1CCCC(Nc2ccc(F)cc2)C1 (stereo unspecified) |  | 0.93 |
| Cc1cc(C)n(-c2ccc(NC(=O)C3CCN(C(=O)CCc4cnccn4)CC3)cc2)n1 |  | 0.854 |
| CC(=O)N1CCC(N2CCCC(CCc3ccccc3F)C2)CC1 (stereo unspecified) | 0.86 |  |
| COc1ccc(NC(=O)CCC2CCCN(C(=O)CCN3CCCO3)C2)cc1Cl (stereo unspecified) |  | 0.831 |

2 neighbouring entries out of the list so far, quoted:

| SMILES | bacterial growth OD600 (polymyxin B 0.75 µg/mL) | bacterial growth OD600 (polymyxin B 1 µg/mL) |
| --- | --- | --- |
| CC(C)=CC(=O)N1CCCC(Nc2ccc(F)cc2)C1 (stereo unspecified) |  | 0.93 |
| Cc1cc(C)n(-c2ccc(NC(=O)C3CCN(C(=O)CCc4cnccn4)CC3)cc2)n1 |  | 0.854 |
